Test results: paper PMC11855827, “High-Throughput Screening of Five Compound Libraries for Anthelmintic Activity and Toxicity Leads to the Discovery of Two Flavonoid Compounds” (International Journal of Molecular Sciences, 2025)
Where two headings read alike, the source gives them in different places.

Test system: C. elegans
Assay: microbe, parasite or virus in culture
Conditions: Caenorhabditis elegans

CN[C@@H]1C[C@H]2O[C@@](C)([C@@H]1OC)n1c3ccccc3c3c4c(c5c6ccccc6n2c5c31)C(=O)NC4 [Staurosporine]
inhibition at 110 µM (0 h, read-out: Percentage of motility inhibition 0 h): 15% | inhibition at 110 µM (24 h, read-out: Percentage of motility inhibition 24 h): 33%

NCCCC(=O)O [γ-Aminobutyric acid]
inhibition at 110 µM (0 h, read-out: Percentage of motility inhibition 0 h, Table S2, C. elegans SS assay, 110 μM, 0 h, averages of 4 data points): 13% | inhibition at 110 µM (24 h, read-out: Percentage of motility inhibition 24 h, Table S2, C. elegans SS assay, 110 μM, 24 h, averages of 4 data points): 21%
